These are yes or no findings as the source states them, for the method shown. Some results given as binding are weak or reduced against the parent protein; the word gives no strength.
T1: prohibitin (PHB) on the surface of adipocytes (mature 3T3-L1) (UniProt P67778)
T1 sequence (looked up): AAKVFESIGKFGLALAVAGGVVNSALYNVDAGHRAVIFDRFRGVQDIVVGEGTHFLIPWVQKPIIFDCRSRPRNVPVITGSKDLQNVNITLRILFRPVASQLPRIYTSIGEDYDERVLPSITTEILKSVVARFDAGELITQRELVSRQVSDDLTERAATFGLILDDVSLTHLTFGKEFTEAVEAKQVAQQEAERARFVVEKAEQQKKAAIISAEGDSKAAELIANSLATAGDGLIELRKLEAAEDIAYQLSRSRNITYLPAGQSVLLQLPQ


Legend:
[1] = biological target: T1, prohibitin (PHB) on the surface of adipocytes (mature 3T3-L1); test: confocal fluorescence imaging of FITC-labeled peptide (1 µM) on mature 3T3-L1 adipocytes
[2] = biological target: T1, prohibitin (PHB) on the surface of adipocytes (mature 3T3-L1); test: FACS of FITC-labeled peptide (1 µM) on mature 3T3-L1 adipocytes
[3] = biological target: T1, prohibitin (PHB) on the surface of adipocytes (mature 3T3-L1); test: FACS of FITC-labeled peptide (1 µM) on mature 3T3-L1 adipocytes, compared with ATS
[4] = biological target: T1, prohibitin (PHB) on the surface of adipocytes (mature 3T3-L1); test: FACS of FITC-labeled peptide (1 µM) on mature 3T3-L1 adipocytes, compared with AHP

| Binder | binding [1] | binding [2] | binding [3] | binding [4] |
| --- | --- | --- | --- | --- |
| KGRRAKD (FITC-labeled (position of the label not stated)) [adipose tissue homing peptide (AHP), 7mer KGRRAKD, FITC-labeled] | binds | binds | binds |  |
| KGGRAKD (FITC-labeled (position of the label not stated)) [adipose targeting sequence (ATS), KGGRAKD, FITC-labeled] |  |  |  | binds |
